Assay results as given in publication PMC5533775.
Results are given in words; binding and its absence hold for the method and conditions named. Binding seen in cells or lysates may run through a third protein. Some entries that bind do so weakly or less than the wild type. Tags and fused reporters may be left off the sequences shown.

Target: T1, Myc-tagged Tbx1 (UniProt P70323)
T1 sequence: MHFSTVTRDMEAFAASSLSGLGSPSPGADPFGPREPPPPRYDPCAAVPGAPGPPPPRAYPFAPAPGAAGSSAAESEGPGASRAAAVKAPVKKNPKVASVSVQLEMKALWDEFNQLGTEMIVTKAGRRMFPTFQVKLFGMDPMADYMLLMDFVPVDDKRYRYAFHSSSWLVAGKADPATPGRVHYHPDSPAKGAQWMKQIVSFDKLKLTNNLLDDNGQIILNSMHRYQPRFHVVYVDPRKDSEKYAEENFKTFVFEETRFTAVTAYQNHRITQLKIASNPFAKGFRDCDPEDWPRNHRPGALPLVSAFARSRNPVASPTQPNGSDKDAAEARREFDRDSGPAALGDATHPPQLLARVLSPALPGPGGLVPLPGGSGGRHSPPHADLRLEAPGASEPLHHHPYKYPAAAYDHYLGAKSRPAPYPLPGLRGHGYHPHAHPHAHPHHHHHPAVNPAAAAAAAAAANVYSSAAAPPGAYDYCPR
Experiment: co-IP; COS1 cells transfected with FLAG-tagged Foxc1/Foxc2 or Myc-tagged Tbx1; lysis buffer 20 mM Tris-HCl pH 8.0, 137 mM NaCl, 1% NP-40, 2 mM EDTA; precipitated with anti-c-Myc antibody (9E10) and protein G Sepharose; blotted with anti-Myc or anti-DDDDK-tag

B1: FLAG-tagged Foxc1 (protein, UniProt Q61572 1-553)
chain: MQARYSVSSPNSLGVVPYLGGEQSYYRAAAAAAGGGYTAMPAPMSVYSHPAHAEQYPGSMARAYGPYTPQPQPKDMVKPPYSYIALITMAIQNAPDKKITLNGIYQFIMDRFPFYRDNKQGWQNSIRHNLSLNECFVKVPRDDKKPGKGSYWTLDPDSYNMFENGSFLRRRRRFKKKDAVKDKEEKGRLHLQEPPPPQAGRQPAPAPPEQAEGSAPGPQPPPVRIQDIKTENGTCPSPPQPLSPAAALGSGSAATVPKIESPDSSSSSLSSGSSPPGSLPSARPLSLDAAEPAPPPQPAPPPHHSQGFSVDNIMTSLRGSPQGSAAELGSGLLASAAASSRAGIAPPLALGAYSPGQSSLYSSPCSQSSSAGSSGGGGGGGGGGGGSSSAAGTGGAATYHCNLQAMSLYAAGERGGHLQGPAGGAGSAAVDDPLPDYSLPPATSSSSSSLSHGGGGQEASHHPASHQGRLTSWYLNQAGGDLGHLASAAAAAAAAGYPGQQQNFHSVREMFESQRIGLNNSPVNGNSSCQMAFPASQSLYRTSGAFVYDCSKF
  binding: binds
